doi:10.1101/031336
Changes are numbered by the printed parent chain. No constants are given. Whether binding was seen depends on the method and setting. In cells and extracts the contact can be indirect. These calls come from enrichment with a bait or labelling near it, and not all partners need be listed. A no says only that the protein was not detected with the bait. Where a sequence is shown, tags or fusion partners need not be part of it.

The chains behind the UniProt entries cited, without tags or fusion partners.
UniProt P23330: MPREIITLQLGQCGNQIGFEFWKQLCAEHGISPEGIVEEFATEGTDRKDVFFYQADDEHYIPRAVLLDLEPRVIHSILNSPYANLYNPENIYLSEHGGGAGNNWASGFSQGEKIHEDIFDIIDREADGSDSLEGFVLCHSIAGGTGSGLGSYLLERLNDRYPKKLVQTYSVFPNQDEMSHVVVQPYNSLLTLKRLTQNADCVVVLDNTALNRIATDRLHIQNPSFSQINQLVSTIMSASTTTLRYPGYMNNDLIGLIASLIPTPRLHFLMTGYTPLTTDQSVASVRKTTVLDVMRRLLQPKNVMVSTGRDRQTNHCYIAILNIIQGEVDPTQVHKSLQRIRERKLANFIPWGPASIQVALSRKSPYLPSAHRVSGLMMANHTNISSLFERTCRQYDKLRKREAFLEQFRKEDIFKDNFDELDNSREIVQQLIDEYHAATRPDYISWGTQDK

How the values were obtained:
Experiment in all cases: affinity purification with mass spectrometry
[1] = target: T1, 2xFlag-huWdr8 wild-type (human) (UniProt Q9P2S5)
T1 sequence: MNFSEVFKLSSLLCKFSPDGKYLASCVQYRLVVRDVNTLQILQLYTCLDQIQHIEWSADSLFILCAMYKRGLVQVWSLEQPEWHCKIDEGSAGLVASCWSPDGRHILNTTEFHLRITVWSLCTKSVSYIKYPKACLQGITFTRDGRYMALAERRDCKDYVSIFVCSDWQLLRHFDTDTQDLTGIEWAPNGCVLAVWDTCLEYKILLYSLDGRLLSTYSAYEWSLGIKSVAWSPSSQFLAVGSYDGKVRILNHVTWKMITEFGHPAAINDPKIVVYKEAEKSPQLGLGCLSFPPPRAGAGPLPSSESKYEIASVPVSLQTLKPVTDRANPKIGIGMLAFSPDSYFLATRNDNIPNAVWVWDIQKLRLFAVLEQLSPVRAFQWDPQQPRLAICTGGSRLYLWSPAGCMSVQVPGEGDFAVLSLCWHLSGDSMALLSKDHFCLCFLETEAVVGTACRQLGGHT

2xFlag-196/197AA (human) = target: T2, 2xFlag-196/197AA (human) (UniProt Q9P2S5)
T2 sequence: T1 sequence with W196A, D197A

2xFlag-359/360AA (human) = target: T3, 2xFlag-359/360AA (human) (UniProt Q9P2S5)
T3 sequence: T1 sequence with W359A, D360A

binding [1]	binding (2xFlag-196/197AA (human))	binding (2xFlag-359/360AA (human))	Substance
binds	binds	binds	γ-tubulin (from UniProt P23330 1-451)
no binding			kinesin-14
binds	no binding	no binding	SSX2IP
binds	binds	binds	Nedd1
